No constants are given. Whether binding was seen depends on the method and setting. In cells and extracts the contact can be indirect. These calls come from enrichment with a bait or labelling near it, and not all partners need be listed.
Molecular target: RNF38 (ring finger protein 38) (UniProt Q9H0F5)
Assay: affinity purification with mass spectrometry; Flag-tagged RNF38 overexpressed in NPC cells (SUNE-1, CNE-2); RIPA lysate on ANTI-FLAG M2 affinity gel overnight at 4 °C, washed with TBS, eluted with 1% TFA, LC-MS/MS; compared to control cells

Chains of the proteins cited; added tags and fusions are not shown.
UniProt Q9H0F5: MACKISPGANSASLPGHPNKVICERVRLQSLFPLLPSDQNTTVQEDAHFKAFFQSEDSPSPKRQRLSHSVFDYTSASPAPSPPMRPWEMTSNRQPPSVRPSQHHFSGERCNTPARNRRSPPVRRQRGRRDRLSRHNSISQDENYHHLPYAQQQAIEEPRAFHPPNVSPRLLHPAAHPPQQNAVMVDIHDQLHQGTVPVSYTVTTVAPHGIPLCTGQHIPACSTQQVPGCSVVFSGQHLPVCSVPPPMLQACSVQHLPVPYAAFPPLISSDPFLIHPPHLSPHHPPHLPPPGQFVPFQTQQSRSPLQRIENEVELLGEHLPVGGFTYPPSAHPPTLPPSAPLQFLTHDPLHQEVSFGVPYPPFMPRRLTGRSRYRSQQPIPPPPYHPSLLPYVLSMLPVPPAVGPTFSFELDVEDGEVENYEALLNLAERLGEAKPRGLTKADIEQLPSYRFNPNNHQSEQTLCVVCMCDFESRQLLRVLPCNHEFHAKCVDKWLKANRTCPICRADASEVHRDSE
UniProt O43707: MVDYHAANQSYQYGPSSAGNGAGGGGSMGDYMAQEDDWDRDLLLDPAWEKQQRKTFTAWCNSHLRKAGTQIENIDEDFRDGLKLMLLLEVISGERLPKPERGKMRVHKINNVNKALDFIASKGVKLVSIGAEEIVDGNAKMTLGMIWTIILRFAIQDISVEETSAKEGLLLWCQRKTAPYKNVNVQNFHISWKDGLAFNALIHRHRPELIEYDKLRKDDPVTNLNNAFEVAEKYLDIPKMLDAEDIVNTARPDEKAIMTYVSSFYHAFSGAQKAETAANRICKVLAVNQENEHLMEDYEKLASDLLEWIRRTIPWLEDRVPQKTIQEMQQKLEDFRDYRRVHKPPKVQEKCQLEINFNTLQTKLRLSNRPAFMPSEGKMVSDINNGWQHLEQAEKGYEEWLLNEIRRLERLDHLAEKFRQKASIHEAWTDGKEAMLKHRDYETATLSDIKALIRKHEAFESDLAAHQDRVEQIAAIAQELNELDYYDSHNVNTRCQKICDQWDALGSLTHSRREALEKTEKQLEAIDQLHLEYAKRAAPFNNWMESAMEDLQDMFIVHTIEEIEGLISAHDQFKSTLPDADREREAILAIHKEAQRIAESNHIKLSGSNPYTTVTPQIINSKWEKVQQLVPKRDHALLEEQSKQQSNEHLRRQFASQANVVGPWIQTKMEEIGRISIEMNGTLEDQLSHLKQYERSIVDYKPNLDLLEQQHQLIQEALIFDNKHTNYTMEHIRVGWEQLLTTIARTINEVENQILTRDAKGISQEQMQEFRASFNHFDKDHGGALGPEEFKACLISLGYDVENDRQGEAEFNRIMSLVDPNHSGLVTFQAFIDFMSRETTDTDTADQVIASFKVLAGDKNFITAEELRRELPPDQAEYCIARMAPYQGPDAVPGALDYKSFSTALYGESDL

Substance: ACTN4 (Actinin Alpha 4) (from UniProt O43707 1-911)
- binding: binds
